Test results from the supplement of paper PMC3334620.
In all, about 33,000 sequences were measured (“E-score (-0.5 to 0.5)”: median about -0.016, highest 2% from about 0.3 on). The list shows a part of the results.

molecular target: T1, Yer184c (UniProt P39961); test: PBM E-score (8-mer binding enrichment) (E-score (-0.5 to 0.5)); higher = stronger / more preferred TF binding; conditions: protein concentration: 100 nM; construct: GST-full length
T1 sequence: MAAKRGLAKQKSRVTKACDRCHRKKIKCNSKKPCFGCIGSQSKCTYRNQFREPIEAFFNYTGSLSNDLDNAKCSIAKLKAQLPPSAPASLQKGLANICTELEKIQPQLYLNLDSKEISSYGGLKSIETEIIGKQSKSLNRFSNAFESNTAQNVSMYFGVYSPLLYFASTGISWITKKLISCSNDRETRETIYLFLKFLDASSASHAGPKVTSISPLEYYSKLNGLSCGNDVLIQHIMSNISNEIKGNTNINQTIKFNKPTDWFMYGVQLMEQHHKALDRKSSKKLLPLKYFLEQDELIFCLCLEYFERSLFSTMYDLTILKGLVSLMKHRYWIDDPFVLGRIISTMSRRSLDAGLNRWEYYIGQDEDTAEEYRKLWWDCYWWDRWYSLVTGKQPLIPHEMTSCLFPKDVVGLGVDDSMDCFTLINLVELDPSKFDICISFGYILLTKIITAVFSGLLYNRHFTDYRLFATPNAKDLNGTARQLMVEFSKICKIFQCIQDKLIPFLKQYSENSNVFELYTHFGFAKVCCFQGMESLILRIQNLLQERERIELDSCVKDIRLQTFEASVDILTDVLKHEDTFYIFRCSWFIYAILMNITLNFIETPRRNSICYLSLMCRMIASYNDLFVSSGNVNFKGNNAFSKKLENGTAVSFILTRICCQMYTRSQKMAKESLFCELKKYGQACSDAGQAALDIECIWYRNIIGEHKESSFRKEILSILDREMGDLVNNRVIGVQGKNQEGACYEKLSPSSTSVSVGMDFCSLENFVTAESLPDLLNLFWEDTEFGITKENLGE
In short: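 Full-length yeast transcription factors or their DNA-binding domains, GST-tagged and expressed with PURExpress, were applied at about 100-200 nM to universal all-10-mer Agilent arrays. These arrays had been made double-stranded by primer extension on fresh or once-stripped slides. Detection used fluorescent anti-GST, normalisation used masliner, and E-scores for ungapped eight-base words pooled with reverse complements came from the Universal PBM Analysis Suite.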

First: AGGGTGAA
Second: CATATTCA
The “PBM E-score” value of the first is lower: -0.136 for the first, 0.155 for the second.

Compared with CGGCATGA, CTTTACCC is lower in “PBM E-score” value: 0.313 for the first, 0.00954 for the second.

Going from CAAGCCCA to CAATCGAA, the “PBM E-score” value rises from -0.326 to 0.1.

Compared with GTTTCTCA, TAGAGGCA is lower in “PBM E-score” value: -0.0303 for the first, -0.265 for the second.

First: AAGCTGGA
Second: CACCATCA
The “PBM E-score” value of the first is higher: -0.088 for the first, -0.245 for the second.

Compared with AACTGGTG, AGATACGG is higher in “PBM E-score” value: -0.216 for the first, 0.22 for the second.

First: TAAAGGGA
Second: AAGTCCGA
The “PBM E-score” value of the first is lower: -0.0443 for the first, 0.182 for the second.

Going from GATATAGC to AAGAGCCA, the “PBM E-score” value rises from -0.0522 to 0.00995.

First: GACACATC
Second: CCTTTTAA
The “PBM E-score” value of the first is lower: -0.0377 for the first, 0.0614 for the second.

First: CTGCGATA
Second: ATCCAATG
The “PBM E-score” value of the first is higher: -0.0577 for the first, -0.147 for the second.

Going from CTCATGGA to GGGATGTA, the “PBM E-score” value falls from -0.035 to -0.131.

Going from AAGAGACC to GTATTGAC, the “PBM E-score” value falls from 0.114 to -0.22.

Going from ACGACCGA to GGGGAAAC, the “PBM E-score” value falls from 0.0332 to -0.0565.

First: GACACTCC
Second: CCAGGAGC
The “PBM E-score” value of the first is higher: 0.0939 for the first, -0.233 for the second.

First: TCATGAGA
Second: CAAAGGAG
The “PBM E-score” value of the first is higher: 0.031 for the first, -0.122 for the second.

Going from CATGACGA to GACGGCCA, the “PBM E-score” value falls from -0.0421 to -0.117.

First: ATAAAGAG
Second: AAACGTGT
The “PBM E-score” value of the first is lower: -0.174 for the first, 0.0448 for the second.

First: CACTGATG
Second: GCGCCGTA
The “PBM E-score” value of the first is lower: -0.095 for the first, 0.247 for the second.

Compared with CAAGCCGC, CCCTGCCC is lower in “PBM E-score” value: -0.0146 for the first, -0.297 for the second.

Compared with ATTGCATG, GCTTTGTA is higher in “PBM E-score” value: 0.126 for the first, 0.157 for the second.

Compared with AGTAAATG, AACGATCC is lower in “PBM E-score” value: 0.146 for the first, -0.0945 for the second.

First: ACTTTGAG
Second: ACGGTACA
The “PBM E-score” value of the first is higher: 0.0272 for the first, -0.0253 for the second.

Compared with AAGGGGGT, AATGGTCG is higher in “PBM E-score” value: -0.39 for the first, -0.0457 for the second.

Compared with ATCCCGTC, CAGTCCTC is lower in “PBM E-score” value: -0.0516 for the first, -0.248 for the second.

First: CACCATAA
Second: ATCATTCG
The “PBM E-score” value of the first is lower: -0.134 for the first, 0.184 for the second.

First: TACCAGCA
Second: GGGAGCAC
The “PBM E-score” value of the first is lower: -0.181 for the first, -0.0863 for the second.

First: ACCTGTGA
Second: AGGTGTGG
The “PBM E-score” value of the first is higher: 0.0727 for the first, -0.305 for the second.

Going from GTCTAGGA to GTATTTTA, the “PBM E-score” value rises from -0.0819 to 0.236.

First: AGATGGCG
Second: TCTGAGAA
The “PBM E-score” value of the first is higher: 0.0474 for the first, 0.0112 for the second.

First: ACTTATAA
Second: ATAAGTCA
The “PBM E-score” value of the first is higher: 0.221 for the first, -0.0747 for the second.

Going from CAAGCCCG to AGTAGCAG, the “PBM E-score” value falls from 0.0934 to -0.0931.

First: ATCGCGAG
Second: GAAGTTAC
The “PBM E-score” value of the first is higher: 0.118 for the first, 0.0984 for the second.

First: CCAATACA
Second: GATTGTAC
The “PBM E-score” value of the first is higher: 0.00312 for the first, -0.103 for the second.

First: AAAGTTCG
Second: CGAACCAA
The “PBM E-score” value of the first is higher: 0.229 for the first, 0.104 for the second.

First: GGACTTAA
Second: AAAATCAC
The “PBM E-score” value of the first is lower: -0.0986 for the first, 0.0858 for the second.

Going from CCCGCGAG to AGTCAAGA, the “PBM E-score” value falls from 0.103 to -0.0191.

First: AAGGTGAA
Second: AAAATTTT
The “PBM E-score” value of the first is lower: -0.0939 for the first, 0.293 for the second.

First: ATTTGCTA
Second: AACCGTAG
The “PBM E-score” value of the first is higher: 0.0871 for the first, 0.00354 for the second.

Compared with GTAGAAAC, CCTCAACA is higher in “PBM E-score” value: 0.0701 for the first, 0.126 for the second.

First: CGCTCAAG
Second: TCCCAACA
The “PBM E-score” value of the first is higher: -0.0178 for the first, -0.109 for the second.

Going from CGAAGCAA to ACCCAGTC, the “PBM E-score” value falls from 0.0302 to -0.229.

Going from CACACTGC to CAGTTCCA, the “PBM E-score” value rises from -0.155 to -0.103.

Going from AGTCCTAT to CGTCCCTC, the “PBM E-score” value rises from -0.174 to -0.0803.

First: CCGTTTCC
Second: AAGTGGCT
The “PBM E-score” value of the first is higher: -0.00402 for the first, -0.101 for the second.

First: GCAGACTA
Second: CATGTTCG
The “PBM E-score” value of the first is lower: -0.0298 for the first, 0.0957 for the second.

Compared with GGGATGGA, CCGAAAGC is higher in “PBM E-score” value: -0.0899 for the first, 0.145 for the second.

Going from TAACGTGA to CGAAAAAA, the “PBM E-score” value rises from -0.0842 to 0.233.

First: ATCCCAGC
Second: ACGCTGCG
The “PBM E-score” value of the first is higher: -0.059 for the first, -0.0865 for the second.

Compared with CTTACCTC, AAGTAGTC is higher in “PBM E-score” value: -0.191 for the first, 0.0817 for the second.

First: CAAGGCCG
Second: TCAGAGGA
The “PBM E-score” value of the first is higher: 0.187 for the first, -0.145 for the second.

Going from CGCTGCAG to GGCATAGA, the “PBM E-score” value rises from -0.152 to 0.0796.

Compared with AGCCACTC, GATGTTAC is higher in “PBM E-score” value: -0.212 for the first, 0.133 for the second.

Compared with CTTCACGC, CACAGTGC is lower in “PBM E-score” value: 0.075 for the first, -0.0361 for the second.

Going from ATCCACTA to CTCCCGAA, the “PBM E-score” value falls from 0.105 to -0.0112.

First: AACTCAGA
Second: AAAATGCA
The “PBM E-score” value of the first is higher: 0.109 for the first, -0.0621 for the second.

Compared with CCTTTCCG, GCCTTTCC is lower in “PBM E-score” value: 0.215 for the first, 0.0586 for the second.

Compared with GCATATCA, GCGTTAAA is lower in “PBM E-score” value: 0.0856 for the first, -0.0955 for the second.

Going from AAACCAAT to GGAAACCC, the “PBM E-score” value falls from 0.152 to 0.0877.

Going from AGCAGTAT to AACGTATT, the “PBM E-score” value rises from 0.0365 to 0.084.

Compared with GGGGAGAC, CAGCTAAA is higher in “PBM E-score” value: -0.179 for the first, -0.0367 for the second.

First: CAACATGA
Second: ATGTGCCA
The “PBM E-score” value of the first is higher: 0.0223 for the first, -0.0641 for the second.

Going from CCTATCCC to AATTACAG, the “PBM E-score” value rises from -0.00501 to 0.212.

Compared with CTTAAAGC, CCACTGGA is lower in “PBM E-score” value: 0.152 for the first, -0.138 for the second.

Going from ATCCTGAG to AACGTGAT, the “PBM E-score” value rises from -0.0693 to -0.0005.

First: CCGATTGA
Second: CCATGGCG
The “PBM E-score” value of the first is higher: 0.175 for the first, 0.101 for the second.

Going from GCGCCACA to AAATTTTA, the “PBM E-score” value rises from -0.162 to 0.0948.

Going from AGACGCCC to CCAAAATC, the “PBM E-score” value rises from -0.0845 to 0.0552.

First: CCTCCAAG
Second: ACCGTTAT
The “PBM E-score” value of the first is lower: -0.12 for the first, 0.0567 for the second.

Compared with ACTCATCA, AATCGATA is higher in “PBM E-score” value: 0.00089 for the first, 0.142 for the second.

Compared with AGGCACCA, AGAGCCCG is higher in “PBM E-score” value: -0.0795 for the first, -0.0183 for the second.

Going from ATTAACAA to GAACACCA, the “PBM E-score” value falls from 0.247 to -0.0328.

First: GAATGACC
Second: AATAGTTA
The “PBM E-score” value of the first is higher: 0.0373 for the first, -0.00148 for the second.

Compared with ACGCCTAC, CCTTCCGC is higher in “PBM E-score” value: -0.266 for the first, 0.0188 for the second.

Compared with ACCCATCC, AAGTGGGG is lower in “PBM E-score” value: -0.179 for the first, -0.246 for the second.

First: GAGCAATA
Second: AGCACTTC
The “PBM E-score” value of the first is higher: 0.0587 for the first, -0.043 for the second.

Going from CATTAGTA to TCGATAGA, the “PBM E-score” value rises from -0.0008 to 0.0326.

Compared with TCGTTAAA, CACATCTC is lower in “PBM E-score” value: 0.166 for the first, -0.193 for the second.

Compared with TCATCAAA, AAGTGGAG is higher in “PBM E-score” value: -0.0378 for the first, -0.0286 for the second.

Compared with CACGACGA, AACGGTGA is higher in “PBM E-score” value: -0.0485 for the first, -0.0245 for the second.

First: AATACAAT
Second: ATCCGTTC
The “PBM E-score” value of the first is lower: 0.152 for the first, 0.29 for the second.

Compared with CAAAACGA, ATGAGATC is lower in “PBM E-score” value: 0.13 for the first, 0.011 for the second.

First: CAAATTAA
Second: GAGGATCC
The “PBM E-score” value of the first is lower: 0.0386 for the first, 0.116 for the second.

Going from GTCTCGTA to ACACATGC, the “PBM E-score” value rises from -0.142 to -0.0896.

First: TAAACAGA
Second: ATCACCTA
The “PBM E-score” value of the first is higher: 0.122 for the first, -0.207 for the second.

Compared with AATCATGC, CTCAAGCA is lower in “PBM E-score” value: 0.0333 for the first, -0.183 for the second.

Going from CATTCTGC to TTCGTCAA, the “PBM E-score” value rises from 0.0316 to 0.0319.
